Assay results from patent US20230242902A1, “A HIGHLY ERROR-PRONE […] R[…] FOR TARGETED CONTINUOUS EVOLUTION IN VIVO” (The Regents of the University of California, priority 2017, published 2023).
Where “and” joins values, the source holds several entries; their conditions need not be identical. Equal entries are not always repeated.

System: p1
Test: p1 copy number by p1-encoded mKate2 fluorescence
Type: cell-based, S. cerevisiae
Settings: p1-encoded mKate2, flow cytometry, OR-Y24 strains, calibration curve
Protocol: A calibration curve was established to correlate p1 copy number, determined via quantitative PCR (qPCR), with fluorescence of p1-encoded mKate2 (Table 1). Five TP-DNAP1 variants representing a wide range of copy numbers were transformed into ORY24 and passaged until w.t. p1 was displaced. The five OR-Y24 strains were grown to saturation, diluted 1:10,000 to mimic p1 fluctuation tests, and grown in triplicate 100 μL cultures and duplicate 40 mL cultures. 100 μL saturated cultures were subject to fluorescence measurement of mKate2 (ex/em=561 nm/620 nm, bandwidth=15 nm) on a flow cytometer (Invitrogen Attune NxT). Whole-cell DNA extracts were prepared from 40 mL cultures and used as templates for qPCR measurement of p1-encoded leu2 (Q180*), as described previously (Ravikumar et al., 2014). p1-encoded LEU2 was PCR amplified with qPCR-Leu2F and qPCR Leu2R; and genomic LEU3 was PCR amplified with qPCR-Leu3F and qPCR-Leu3R using SyBR Green (Fisher Scientific) master mix.
To assay p1 copy number for large-scale p1 fluctuation tests, additional replicates of OR-Y24 strains were grown from the 1:10,000 dilution in triplicate and saturated cultures were subject to fluorescence measurement via flow cytometry. Fluorescence measurements were converted to copy number with the linear calibration curve.
To assay relative p1 copy number for small-scale p1 fluctuation tests, an additional 200 μL culture of OR-Y24 strains were grown from the 1:10,000 dilution. 200 μL saturated cultures were subject to an OD600 measurement and fluorescence measurement of mKate2 (ex/em=588 nm/633 nm), using a microplate reader (TECAN Infinite M200 PRO). A linear relationship was assumed between p1 copy number and OD600-normalized mKate2 fluorescence. Copy numbers were calculated from normalization to a w.t. TP-DNAP1 control.
For a few large-scale p1 fluctuation tests, p1 copy number was assayed by the method of small scale p1 fluctuation tests (i.e. microplate reader measurement). For these experiments, mutant TP-DNAP1 p1 copy numbers were calculated by normalization to a w.t. TP-DNAP1 control. The copy number of this control was assumed to be the average w.t. TP-DNAP1 copy number from all large-scale p1 fluctuation tests that used flow cytometry measurements.
TP-DNAP1 plasmids were isolated from these strains and subject to Sanger sequencing. 210 unique variants were identified and the corresponding plasmids were re-transformed into OR-Y24. Transformed strains were passaged in SC-UH until w.t. p1 was displaced, and subject to p1 copy number measurement in triplicate. Four high copy variants were directly subject to qPCR measurements for validation. To test the suppressor activity of the G410H mutation, which yields increased p1 copy number, this amino acid change was added to several low-activity TP-DNAP1 variants. p1 copy number was similarly assayed for these strains.

B1: w.t.: wild-type Kluyveromyces lactis DNA polymerase TP-DNAP1, SEQ ID NO:1 (protein, listed as Kluyveromyces lactis)
chain: MDYKDKALNDLRNVYADFDSLPLDFRQILIKDRATLLQKEDVEKKILERQEDAKKYAEYLKQSEIPERISLPNIKRHKGVSISFEETSEDMVLEPRPFIFDGLNIRCFRRETIFSLKNKILNMVKESSSFKNVSRQSVSFMYFKIFNKGKVIASTKSVNIYEDKIDERLEDLCNNFDDVLKKIIDVTYGYESLFVSETYSYVIFYAKSIYFPQPRCVNNWGNNIPNILTFDSFKLFTANKNNVSCIKQCSRFLWQKDFNTLEEMIEYKNGNICIVTPQLHINDVRDIKSFNDIRLYSESPIKTFSVIDNTITYLFYFKEHLGVIFNITKSRHDRRVTKFSPLSKFSDVKNITVCFDIESYFDPEKESNQVNIPFICCASIIYNKVIGNIVDFEGRDCVAQMIEYVVDICGELNISSVELIAHNGGGYDFHYILSSMYNPAAIKNILIRNNSFISFNFAHDGVKFSVKDSYSFLLCSLANASKAFLNEETFKKTDFPHHDLKTADDLYKVYKEWSSVNTEINHVVEKEKLLITSEHIVNFTKNDKSKTLIEWSKDYCRNDVLVLSKVWLEFKNAVEDIFNCELVDQTMTLAGLSYKLFQANMPFDVELRHPNKEDYFNMREALIGGRCISVNGIYKDVLCLDVKSLYPASMAFYDQPYGSFKRVSSRPKDELGIYYVRVTPNRNNKSNFFPIRSHNKITYNNFEESTYIAWYTNVDIDIGLSEGHNIEYIPFDSYGNIGYSWSKKGKIFEKYIKDVLYKLKIKYEKQNNKVKRNVIKIIMNSLWGKFAQKWVNFEYFIKSEDDIDFESEEAYKIWDTDFMLIKKIKESTYSSKPIQNGVFTLSWARYHMKSIWDAGAKEGAECIYSDTDSIFVHKEHFKKNAKFMLNGLKVPIIGSEVGQLELECEFDKLLCAGKKQYMGFYTYFQDGKPCIKEKKRFKGIPSNYIIPELYAHLLSGADKEAKIQFLKFRREWGSVKGYIENKTVKAT
For B1, which “mKate2 fluorescence (a.u.)” value is on record?
Its value is 1455.5 a.u. and 1650.14 a.u.
